Assay results from article PMC5103180.

Biological target: T1, human band 4.2 (human) (UniProt P16452)
T1 sequence: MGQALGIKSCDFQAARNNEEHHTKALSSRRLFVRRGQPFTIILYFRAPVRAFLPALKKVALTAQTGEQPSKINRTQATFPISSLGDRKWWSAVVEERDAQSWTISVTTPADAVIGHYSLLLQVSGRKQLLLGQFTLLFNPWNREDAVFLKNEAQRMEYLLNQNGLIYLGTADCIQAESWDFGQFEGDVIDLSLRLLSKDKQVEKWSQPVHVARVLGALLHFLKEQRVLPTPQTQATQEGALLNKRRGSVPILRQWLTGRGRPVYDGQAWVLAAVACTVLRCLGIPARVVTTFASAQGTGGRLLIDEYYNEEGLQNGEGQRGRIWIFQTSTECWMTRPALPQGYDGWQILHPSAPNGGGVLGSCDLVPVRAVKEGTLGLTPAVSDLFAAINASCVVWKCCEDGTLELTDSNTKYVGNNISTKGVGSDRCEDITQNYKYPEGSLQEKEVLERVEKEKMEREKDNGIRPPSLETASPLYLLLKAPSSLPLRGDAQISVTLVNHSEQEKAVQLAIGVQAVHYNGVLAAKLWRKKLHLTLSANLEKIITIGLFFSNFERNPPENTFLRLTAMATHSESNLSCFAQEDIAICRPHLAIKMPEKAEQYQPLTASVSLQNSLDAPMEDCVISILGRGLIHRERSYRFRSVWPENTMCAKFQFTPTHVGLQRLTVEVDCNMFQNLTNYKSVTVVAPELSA
Assay: co-IP; reverse Co-IP from 3D7 wild-type parasite lysate, cross-linked in 1% formaldehyde; α-band 4.2 antibodies cross-linked with BS3 to Dynabeads Protein G; Western blot with α-PFE1605w

In the case of PFE1605w (endogenous, untagged), the binding was “binds”.

Results are given in words; binding and its absence hold for the method and conditions named. In cells and extracts the contact can be indirect. Binding can be weak; no strength is given.
